# Test results as given in the supplement of paper PMC8728848.
# The list shows a part of the results.
# Legend:
# Experiment in all cases: glycan array binding signal (z-score within array); higher = stronger binding
# Details in all cases: glycan notation: IUPAC condensed, linker removed
# [1] = target: Fuc(a1-2)Gal(b1-4)GlcNAc(b1-3)Gal(b1-4)GlcNAc(b1-3)Gal(b1-4)GlcNAc
# Summary of the method: (§1)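 Columns mapping to the same glycan were averaged after glycan names were converted to IUPAC-condensed notation. The data come from 3228 arrays in the Consortium for Functional Glycomics database, limited to those with an available protein sequence. Binding is reported as a within-array Z-score averaged across arrays of one protein sequence and across linkers.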
# [2] = target: Fuc(a1-2)Gal(b1-4)GlcNAc(b1-3)GalNAc
# Summary of the method: as §1
# [3] = target: Fuc(a1-2)Gal(b1-4)GlcNAc(b1-3)[Fuc(a1-2)Gal(b1-4)GlcNAc(b1-6)]GalNAc
# Summary of the method: as §1
# [4] = target: Fuc(a1-2)Gal(b1-4)GlcNAc(b1-3)[Fuc(a1-3)[Gal(b1-4)]GlcNAc(b1-6)]Gal(b1-4)Glc
# Summary of the method: as §1
# [5] = target: Fuc(a1-2)Gal(b1-4)GlcNAc(b1-6)GalNAc
# Summary of the method: as §1
# [6] = target: Fuc(a1-2)Gal(b1-4)GlcNAc6S
# Summary of the method: as §1
# [7] = target: Fuc(a1-2)Gal(b1-4)[Fuc(a1-3)]GlcNAc
# Summary of the method: as §1
# [8] = target: Fuc(a1-2)Gal(b1-4)[Fuc(a1-3)]GlcNAc(b1-2)Man(a1-3)[Fuc(a1-2)Gal(b1-4)[Fuc(a1-3)]GlcNAc(b1-2)Man(a1-6)]Man(b1-4)GlcNAc(b1-4)[Fuc(a1-6)]GlcNAc
# Summary of the method: as §1
# [9] = target: Fuc(a1-2)Gal(b1-4)[Fuc(a1-3)]GlcNAc(b1-2)[Fuc(a1-2)Gal(b1-4)[Fuc(a1-3)]GlcNAc(b1-4)]Man(a1-3)[Fuc(a1-2)Gal(b1-4)[Fuc(a1-3)]GlcNAc(b1-2)Man(a1-6)]Man(b1-4)GlcNAc(b1-4)GlcNAc
# Summary of the method: as §1
# [10] = target: Fuc(a1-2)Gal(b1-4)[Fuc(a1-3)]GlcNAc(b1-3)Gal(b1-4)[Fuc(a1-3)]GlcNAc
# Summary of the method: as §1
# [11] = target: Fuc(a1-2)Gal(b1-4)[Fuc(a1-3)]GlcNAc(b1-3)Gal(b1-4)[Fuc(a1-3)]GlcNAc(b1-3)Gal(b1-4)[Fuc(a1-3)]GlcNAc
# Summary of the method: as §1
# [12] = target: Fuc(a1-2)Gal(b1-4)[Fuc(a1-3)]GlcNAc(b1-3)GalNAc
# Summary of the method: as §1
# [13] = target: Fuc(a1-2)Gal(b1-4)[Fuc(a1-3)]GlcNAc(b1-3)[Neu5Ac(a2-6)Gal(b1-4)GlcNAc(b1-6)]Gal(b1-4)Glc
# Summary of the method: as §1
# [14] = target: Fuc(a1-2)Gal3S(b1-4)GlcNAc
# Summary of the method: as §1
# [15] = target: Fuc(a1-2)Gal6S(b1-3)GlcNAc
# Summary of the method: as §1
# [16] = target: Fuc(a1-2)Gal6S(b1-3)GlcNAc6S
# Summary of the method: as §1
# [17] = target: Fuc(a1-2)Gal6S(b1-4)Glc
# Summary of the method: as §1
# [18] = target: Fuc(a1-2)Gal6S(b1-4)Glc6S
# Summary of the method: as §1
# [19] = target: Fuc(a1-2)[Gal(a1-3)]Gal
# Summary of the method: as §1
# [20] = target: Fuc(a1-2)[Gal(a1-3)]Gal(b1-3)GalNAc
# Summary of the method: as §1
# [21] = target: Fuc(a1-2)[Gal(a1-3)]Gal(b1-3)GalNAc(b1-3)Gal(a1-4)Gal(b1-4)Glc
# Summary of the method: as §1
# [22] = target: Fuc(a1-2)[Gal(a1-3)]Gal(b1-3)GlcNAc
# Summary of the method: as §1
# [23] = target: Fuc(a1-2)[Gal(a1-3)]Gal(b1-3)GlcNAc(b1-2)Man(a1-3)[Fuc(a1-2)[Gal(a1-3)]Gal(b1-3)GlcNAc(b1-2)Man(a1-6)]Man(b1-4)GlcNAc(b1-4)GlcNAc
# Summary of the method: as §1
# [24] = target: Fuc(a1-2)[Gal(a1-3)]Gal(b1-3)GlcNAc(b1-2)Man(a1-3)[Fuc(a1-2)[Gal(a1-3)]Gal(b1-3)GlcNAc(b1-2)Man(a1-6)]Man(b1-4)GlcNAc(b1-4)[Fuc(a1-6)]GlcNAc
# Summary of the method: as §1
# [25] = target: Fuc(a1-2)[Gal(a1-3)]Gal(b1-3)GlcNAc(b1-3)GalNAc
# Summary of the method: as §1
# [26] = target: Fuc(a1-2)[Gal(a1-3)]Gal(b1-3)GlcNAc(b1-6)GalNAc
# Summary of the method: as §1
# [27] = target: Fuc(a1-2)[Gal(a1-3)]Gal(b1-4)Glc
# Summary of the method: as §1
# [28] = target: Fuc(a1-2)[Gal(a1-3)]Gal(b1-4)GlcNAc
# Summary of the method: as §1
# [29] = target: Fuc(a1-2)[Gal(a1-3)]Gal(b1-4)GlcNAc(b1-2)Man
# Summary of the method: as §1
# [30] = target: Fuc(a1-2)[Gal(a1-3)]Gal(b1-4)GlcNAc(b1-2)Man(a1-3)[Fuc(a1-2)[Gal(a1-3)]Gal(b1-4)GlcNAc(b1-2)Man(a1-6)]Man(b1-4)GlcNAc(b1-4)GlcNAc
# Summary of the method: as §1
binder,measurement,setting,value
EUL D1A (Oryza sativa) (protein) MFGFGHHHNQAPAAPSDPNQIFKIFCRANENYCLTVRDSAVVLAPVNPKDEHQHWFKDMRFSTKVKDGEGMPAFALVNKATGLAVKHSLGQSHPVKLVPFNPEYEDASVLWTESKDVGKGFRCIRMVNNTRLNLDAFHGDKDHGGVRDGTTVVLWEWCKGDNQSWKILPWGPEAHSSSPGAATACTIGGVPVHTVRVFSAAGEDYCLTVRNGTACLAPKNPRDDYQHWIKDMRHSNKIRDEEGYPAFALVNKVTGEAIKHSTGQGHPVKLVPYNPEYQDESVLWTESKDVGKGFRCIRMVNNIYLNFDAFHGDKDHGGIHDGTEIVLWKWCEGDNQRWKILPWILEQKLISEEDLNSAVDHHHHHH,glycan array binding signal (z-score),[1],0.796
same,glycan array binding signal (z-score),[2],-0.895
same,glycan array binding signal (z-score),[3],-1.1
same,glycan array binding signal (z-score),[4],0.573
same,glycan array binding signal (z-score),[5],1.97
same,glycan array binding signal (z-score),[6],-0.561
same,glycan array binding signal (z-score),[7],0.235
same,glycan array binding signal (z-score),[8],1.27
same,glycan array binding signal (z-score),[9],-1.42
same,glycan array binding signal (z-score),[10],0.132
same,glycan array binding signal (z-score),[11],-1.66
same,glycan array binding signal (z-score),[12],-0.582
same,glycan array binding signal (z-score),[13],-0.735
same,glycan array binding signal (z-score),[14],0.727
same,glycan array binding signal (z-score),[15],0.469
same,glycan array binding signal (z-score),[16],0.73
same,glycan array binding signal (z-score),[17],-0.295
same,glycan array binding signal (z-score),[18],-0.234
same,glycan array binding signal (z-score),[19],-0.867
same,glycan array binding signal (z-score),[20],-0.151
same,glycan array binding signal (z-score),[21],-0.417
same,glycan array binding signal (z-score),[22],0.506
same,glycan array binding signal (z-score),[23],0.066
same,glycan array binding signal (z-score),[24],-1.06
same,glycan array binding signal (z-score),[25],-0.79
same,glycan array binding signal (z-score),[26],1.11
same,glycan array binding signal (z-score),[27],-0.693
same,glycan array binding signal (z-score),[28],-0.021
same,glycan array binding signal (z-score),[29],0.55
same,glycan array binding signal (z-score),[30],1.08

# Exported tab-delimited: part of the list above
binder	measurement	setting	value
EUL D1A (Oryza sativa) (protein) MFGFGHHHNQAPAAPSDPNQIFKIFCRANENYCLTVRDSAVVLAPVNPKDEHQHWFKDMRFSTKVKDGEGMPAFALVNKATGLAVKHSLGQSHPVKLVPFNPEYEDASVLWTESKDVGKGFRCIRMVNNTRLNLDAFHGDKDHGGVRDGTTVVLWEWCKGDNQSWKILPWGPEAHSSSPGAATACTIGGVPVHTVRVFSAAGEDYCLTVRNGTACLAPKNPRDDYQHWIKDMRHSNKIRDEEGYPAFALVNKVTGEAIKHSTGQGHPVKLVPYNPEYQDESVLWTESKDVGKGFRCIRMVNNIYLNFDAFHGDKDHGGIHDGTEIVLWKWCEGDNQRWKILPWILEQKLISEEDLNSAVDHHHHHH	glycan array binding signal (z-score)	[6]	-0.561
same	glycan array binding signal (z-score)	[21]	-0.417
